In patent US20080070939A1, “LOCAL […] COMPOSITIONS CONTAINING DEXTROROTATORY MORPHINAN DERIVATIVES OR PHARMACEUTICALLY ACCEPTABLE SALTS THEREOF” (CHI MEI FOUNDATION HOSPITAL, priority 2006, published 2008):
Values joined by “and” are separate entries in the source; they are usually repeats but may differ in a detail not shown here. Identical values can stand only once. Counter-ions that a name gives are not always drawn.

Tests used:
[1] = Systemic safety indices: mortality 24 hours after intraperitoneal injection in rats; settings: rat, in vivo, ip
Procedure: Essentially, each drug was injected intraperitoneally into the rats (n=8). The number of dead rats was observed after 24 hours, and the rate of mortality (%) was calculated. Thereafter, the doses of each drug and the relative mortality were plotted to obtain dose-mortality curves of the drugs. […] The safety index (LD50/ED50) of each drug was calculated using the LD50 thus obtained and the ED50 obtained in the section “C. Potency evaluation” of this example.

sciatic nerve = experiment: Sciatic nerve blockade after injection at the sciatic nerve notch in rats; assay type: in vivo; parameters: AUC of time-% PE curve, sciatic nerve blockade of motor function / AUC of time-% PE curve, sciatic nerve blockade of proprioception / AUC of time-% PE curve, sciatic nerve blockade of nociceptive reaction: unit not given beside the values
Procedure: Male Sprague-Dawley rats (weighing about 300 to 350 g); for each dose of each drug, n=6.
In brief, the rats were slightly anesthetized by inhalation of a low concentration of sevoflurane. Then, 200 μL of tested drugs were injected at the sciatic nerve notch at the left hind limb of the rat using a 27-gauge needle connected to a tuberculin syringe (Becton Dickinson, USA, model BND309623-BX). Thereafter, development of sciatic nerve blockade was observed from the paralysis of the left hind limb of the rat. The right hind limb served as a control during the subsequent functional assay
For proprioception, the front half of the rat body and the right hind limb were off the ground at the same time so that the rat was standing on the left hind limb during the measurement.
The differences resided in that: The sciatic nerve notch injections of ED25, ED50 and ED75 were conducted based on the method described in the preceding section “A. Drug injection” of this example. Evaluations of motor function, proprioception and nociceptive reaction were conducted based on the method described in section “B. Neurobehavioral evaluations” of this example.
The differences resided in that: Before the statistical analysis, Shapiro-Wilk test was used to evaluate whether the data were, theoretically, normally distributed.

Male Sprague-Dawley rats = experiment: Infiltrative cutaneous anesthesia (inhibition of cutaneous trunci muscle reflex, CTMR) after subcutaneous injection in rats; assay type: in vivo; settings: 2ED50 when administered independently, ED50 for co-administration, mean ± SEM, hydrochloride
Procedure: Male Sprague-Dawley rats (weighing about 200 to 250 g); for each dose of each drug, n=8.
In brief, hairs on the dorsal surface (about 10×10 cm^2) of the thoracolumbar region of the rat were shaved, and the shaved surface was sterilized with iodine for preparation. To reduce the number of animals used, the back of the rat was further divided into left and right parts. One drug was injected first at the right part. After a washout period of one week, another drug was injected at the left part.
0.6 mL of drug was injected subcutaneously under the dorsal surface of the thoracolumbar region of the rat using a 30-gauge needle attached to a syringe (Becton Drive, Franklin Lakes, USA). The subcutaneous injection would result in a circular elevation (i.e., a wheal) of the skin, about 2 cm in diameter. The elevation was marked with ink within 1 minute after injection.
CTMR refers to the reflex movement of the skin of the back caused by twitching of the lateral thoracispinal muscle in response to local dorsal cutaneous stimulation. Essentially, a von Frey filament (No.15; Somedic Sales AB, Sweden) to which a cut end of an 18-gauge needle was affixed was used to produce a standard nociceptive stimulus (strength: 19 g). Six pinpricks (at a frequency of 0.5-1 Hz) were applied to a single marked wheal during each test. […]

[2] = rats, 2ED50 when administered independently, ED50 of each drug when co-administered, mean ± SEM, hydrochloride

SMILES: CCN(CC)CC(=O)Nc1c(C)cccc1C [Lidocaine hydrochloride, reference compound]
- LD50 at 24 h [1]: 196 mg/kg
- ED50 (sciatic nerve; Rattus norvegicus, read-out: Mean ED50): 2.53 mg/kg
- AUC of time-% PE curve, sciatic nerve blockade of motor function (sciatic nerve; [2]): 2594 ± 284 and 2692 ± 248 and 2505 ± 199
- AUC of time-% PE curve, sciatic nerve blockade of nociceptive reaction (sciatic nerve; [2]): 2886 ± 164 and 2957 ± 253 and 2694 ± 248
- AUC of time-% PE curve, sciatic nerve blockade of proprioception (sciatic nerve; [2]): 2682 ± 204 and 2808 ± 218 and 2534 ± 196
- AUC (% min.) (Male Sprague-Dawley rats): 2700 ± 360 % min. and 2700 ± 410 % min.
